# Measurements: the supplement of paper PMC10849652
# Protein sequences, listed by entry. Tags and fused reporters are not part of them. Lines headed by an entry give the natural chain unless they say otherwise; changes in a name come on top.
# UniProt Q96DW6: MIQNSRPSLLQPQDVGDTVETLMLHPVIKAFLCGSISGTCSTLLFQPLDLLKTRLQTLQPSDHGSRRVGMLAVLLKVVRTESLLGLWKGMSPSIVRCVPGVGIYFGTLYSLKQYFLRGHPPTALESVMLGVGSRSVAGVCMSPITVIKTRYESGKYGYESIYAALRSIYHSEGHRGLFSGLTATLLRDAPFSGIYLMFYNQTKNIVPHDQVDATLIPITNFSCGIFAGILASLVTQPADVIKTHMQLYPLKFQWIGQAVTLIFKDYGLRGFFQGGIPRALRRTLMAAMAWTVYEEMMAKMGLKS
# UniProt P52569: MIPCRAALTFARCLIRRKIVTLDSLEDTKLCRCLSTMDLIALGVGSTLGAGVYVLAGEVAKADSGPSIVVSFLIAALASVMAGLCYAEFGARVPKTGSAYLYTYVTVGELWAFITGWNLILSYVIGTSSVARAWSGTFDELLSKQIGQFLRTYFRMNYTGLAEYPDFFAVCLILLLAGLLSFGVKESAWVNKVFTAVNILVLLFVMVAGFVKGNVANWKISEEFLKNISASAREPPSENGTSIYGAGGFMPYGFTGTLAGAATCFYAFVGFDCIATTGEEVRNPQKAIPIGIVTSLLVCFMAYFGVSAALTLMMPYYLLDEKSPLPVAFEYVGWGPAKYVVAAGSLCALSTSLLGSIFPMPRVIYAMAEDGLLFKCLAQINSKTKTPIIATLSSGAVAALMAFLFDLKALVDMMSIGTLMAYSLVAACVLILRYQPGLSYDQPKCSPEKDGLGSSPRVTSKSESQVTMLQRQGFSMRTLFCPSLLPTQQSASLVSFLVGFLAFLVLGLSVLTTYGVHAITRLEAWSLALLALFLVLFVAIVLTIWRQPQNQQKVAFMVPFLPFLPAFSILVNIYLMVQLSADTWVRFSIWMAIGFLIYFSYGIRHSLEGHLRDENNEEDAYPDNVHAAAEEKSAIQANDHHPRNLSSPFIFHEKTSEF
# UniProt Q6XR72: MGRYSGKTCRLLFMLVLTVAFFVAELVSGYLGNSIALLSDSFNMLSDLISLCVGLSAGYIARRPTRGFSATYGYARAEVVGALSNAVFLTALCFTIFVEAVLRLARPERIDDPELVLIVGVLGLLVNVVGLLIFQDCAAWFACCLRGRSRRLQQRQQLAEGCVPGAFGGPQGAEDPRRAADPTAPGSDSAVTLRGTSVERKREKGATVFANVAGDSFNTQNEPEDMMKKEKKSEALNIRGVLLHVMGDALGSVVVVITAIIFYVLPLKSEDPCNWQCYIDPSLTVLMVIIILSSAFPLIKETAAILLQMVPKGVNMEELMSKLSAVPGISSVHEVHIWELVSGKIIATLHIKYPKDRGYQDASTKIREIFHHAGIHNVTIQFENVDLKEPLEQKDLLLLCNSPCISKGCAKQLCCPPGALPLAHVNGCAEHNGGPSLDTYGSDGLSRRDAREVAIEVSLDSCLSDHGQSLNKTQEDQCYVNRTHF
# UniProt Q9Y619: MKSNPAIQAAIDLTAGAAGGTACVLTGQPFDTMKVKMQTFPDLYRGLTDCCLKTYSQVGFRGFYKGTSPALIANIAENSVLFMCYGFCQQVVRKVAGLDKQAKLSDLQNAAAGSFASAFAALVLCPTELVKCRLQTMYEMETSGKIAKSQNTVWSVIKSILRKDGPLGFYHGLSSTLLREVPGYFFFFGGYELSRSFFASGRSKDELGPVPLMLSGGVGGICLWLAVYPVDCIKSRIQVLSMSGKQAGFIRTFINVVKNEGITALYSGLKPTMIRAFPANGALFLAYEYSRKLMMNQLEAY
# UniProt Q8N357: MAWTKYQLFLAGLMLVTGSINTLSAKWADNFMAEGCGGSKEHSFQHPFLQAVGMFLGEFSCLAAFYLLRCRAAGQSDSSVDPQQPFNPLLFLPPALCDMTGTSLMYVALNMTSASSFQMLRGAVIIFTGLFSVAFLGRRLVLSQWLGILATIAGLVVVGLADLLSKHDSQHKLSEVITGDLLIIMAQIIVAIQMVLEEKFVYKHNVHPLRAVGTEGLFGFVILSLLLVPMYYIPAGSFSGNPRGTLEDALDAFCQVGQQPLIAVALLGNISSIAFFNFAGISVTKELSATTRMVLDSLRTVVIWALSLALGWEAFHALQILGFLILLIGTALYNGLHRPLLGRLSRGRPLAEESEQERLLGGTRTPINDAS
# UniProt Q8TAD4: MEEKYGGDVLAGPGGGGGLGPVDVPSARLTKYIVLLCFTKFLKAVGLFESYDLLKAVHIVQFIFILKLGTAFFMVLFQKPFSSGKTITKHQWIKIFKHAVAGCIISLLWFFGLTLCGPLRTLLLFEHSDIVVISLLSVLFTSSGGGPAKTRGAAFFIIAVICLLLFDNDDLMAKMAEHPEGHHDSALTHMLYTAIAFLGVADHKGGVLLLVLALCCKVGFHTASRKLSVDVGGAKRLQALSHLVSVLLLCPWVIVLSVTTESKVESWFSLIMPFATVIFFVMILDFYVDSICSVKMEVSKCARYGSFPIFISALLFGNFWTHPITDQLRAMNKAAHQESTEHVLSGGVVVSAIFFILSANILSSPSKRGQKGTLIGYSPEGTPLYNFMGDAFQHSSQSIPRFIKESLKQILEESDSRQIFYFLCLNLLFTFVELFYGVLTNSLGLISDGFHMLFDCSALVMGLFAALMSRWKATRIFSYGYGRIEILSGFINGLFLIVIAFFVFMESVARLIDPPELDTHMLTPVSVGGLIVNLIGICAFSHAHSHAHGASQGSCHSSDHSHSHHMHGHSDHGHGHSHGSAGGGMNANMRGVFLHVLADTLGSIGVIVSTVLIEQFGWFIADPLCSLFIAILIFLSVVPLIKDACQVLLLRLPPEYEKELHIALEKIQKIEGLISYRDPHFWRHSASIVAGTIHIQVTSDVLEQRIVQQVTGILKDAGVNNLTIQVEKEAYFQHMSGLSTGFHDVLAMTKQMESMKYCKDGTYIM
# UniProt Q6PML9: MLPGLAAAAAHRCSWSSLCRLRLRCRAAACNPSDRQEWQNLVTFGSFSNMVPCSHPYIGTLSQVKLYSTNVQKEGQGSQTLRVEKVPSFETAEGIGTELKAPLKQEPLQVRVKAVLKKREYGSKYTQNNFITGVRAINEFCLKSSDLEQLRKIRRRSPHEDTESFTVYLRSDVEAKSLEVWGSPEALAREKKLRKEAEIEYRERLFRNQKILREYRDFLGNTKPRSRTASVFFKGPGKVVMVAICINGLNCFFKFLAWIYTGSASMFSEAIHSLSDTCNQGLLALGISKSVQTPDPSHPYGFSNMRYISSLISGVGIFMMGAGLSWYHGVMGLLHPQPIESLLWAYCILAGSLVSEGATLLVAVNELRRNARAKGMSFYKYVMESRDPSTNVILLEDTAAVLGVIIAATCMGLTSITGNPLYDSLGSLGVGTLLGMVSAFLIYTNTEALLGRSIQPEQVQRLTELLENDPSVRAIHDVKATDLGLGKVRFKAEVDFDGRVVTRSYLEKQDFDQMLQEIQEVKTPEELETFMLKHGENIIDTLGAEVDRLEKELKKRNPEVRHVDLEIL
# UniProt Q02978: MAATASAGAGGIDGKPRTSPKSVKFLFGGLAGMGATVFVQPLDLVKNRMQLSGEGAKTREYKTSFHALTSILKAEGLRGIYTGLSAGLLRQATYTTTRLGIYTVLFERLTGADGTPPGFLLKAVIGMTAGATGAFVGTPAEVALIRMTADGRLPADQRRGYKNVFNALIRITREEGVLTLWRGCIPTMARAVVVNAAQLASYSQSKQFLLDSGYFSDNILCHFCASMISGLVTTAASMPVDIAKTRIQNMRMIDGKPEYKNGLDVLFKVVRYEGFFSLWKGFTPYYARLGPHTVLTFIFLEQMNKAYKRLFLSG
# UniProt Q9NYZ2: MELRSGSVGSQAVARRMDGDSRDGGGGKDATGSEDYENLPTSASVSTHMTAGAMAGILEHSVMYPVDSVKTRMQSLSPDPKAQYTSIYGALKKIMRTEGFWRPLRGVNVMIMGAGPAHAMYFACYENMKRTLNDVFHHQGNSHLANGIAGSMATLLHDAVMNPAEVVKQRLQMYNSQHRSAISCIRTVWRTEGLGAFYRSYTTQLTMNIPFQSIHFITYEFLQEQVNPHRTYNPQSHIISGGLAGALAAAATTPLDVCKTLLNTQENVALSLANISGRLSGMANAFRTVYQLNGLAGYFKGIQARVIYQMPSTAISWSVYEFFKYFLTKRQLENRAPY
# UniProt O14745: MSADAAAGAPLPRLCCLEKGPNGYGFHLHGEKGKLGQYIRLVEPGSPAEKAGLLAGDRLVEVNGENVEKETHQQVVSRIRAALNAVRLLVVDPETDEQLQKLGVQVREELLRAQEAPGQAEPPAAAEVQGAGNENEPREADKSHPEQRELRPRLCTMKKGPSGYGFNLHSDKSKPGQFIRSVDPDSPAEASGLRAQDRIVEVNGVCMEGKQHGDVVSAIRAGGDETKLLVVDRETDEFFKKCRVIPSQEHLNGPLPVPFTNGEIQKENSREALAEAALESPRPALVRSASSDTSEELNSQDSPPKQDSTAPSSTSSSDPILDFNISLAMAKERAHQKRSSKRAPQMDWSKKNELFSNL
# UniProt Q8TBP6: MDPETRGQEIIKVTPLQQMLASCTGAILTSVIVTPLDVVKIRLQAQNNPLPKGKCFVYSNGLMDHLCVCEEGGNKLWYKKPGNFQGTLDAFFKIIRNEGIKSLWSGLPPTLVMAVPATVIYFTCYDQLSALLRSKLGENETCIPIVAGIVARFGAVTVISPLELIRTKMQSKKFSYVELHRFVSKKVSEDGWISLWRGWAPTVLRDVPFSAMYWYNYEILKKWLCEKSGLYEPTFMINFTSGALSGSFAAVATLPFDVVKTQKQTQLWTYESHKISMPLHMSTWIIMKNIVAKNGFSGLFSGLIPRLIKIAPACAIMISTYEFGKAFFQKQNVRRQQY
# UniProt P11169: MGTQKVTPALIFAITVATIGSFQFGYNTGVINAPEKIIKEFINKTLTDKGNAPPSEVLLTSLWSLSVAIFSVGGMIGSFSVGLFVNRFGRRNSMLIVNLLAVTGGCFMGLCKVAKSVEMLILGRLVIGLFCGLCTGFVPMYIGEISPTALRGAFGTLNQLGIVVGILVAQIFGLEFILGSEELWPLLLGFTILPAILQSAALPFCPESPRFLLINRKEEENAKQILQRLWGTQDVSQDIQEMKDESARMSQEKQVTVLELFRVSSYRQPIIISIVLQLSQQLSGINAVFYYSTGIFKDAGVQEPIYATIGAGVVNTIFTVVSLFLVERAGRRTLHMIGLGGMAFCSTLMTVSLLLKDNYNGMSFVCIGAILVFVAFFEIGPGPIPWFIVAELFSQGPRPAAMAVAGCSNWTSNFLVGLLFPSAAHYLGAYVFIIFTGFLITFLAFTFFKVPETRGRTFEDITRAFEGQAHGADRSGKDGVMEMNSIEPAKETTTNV
# UniProt Q9ULF5: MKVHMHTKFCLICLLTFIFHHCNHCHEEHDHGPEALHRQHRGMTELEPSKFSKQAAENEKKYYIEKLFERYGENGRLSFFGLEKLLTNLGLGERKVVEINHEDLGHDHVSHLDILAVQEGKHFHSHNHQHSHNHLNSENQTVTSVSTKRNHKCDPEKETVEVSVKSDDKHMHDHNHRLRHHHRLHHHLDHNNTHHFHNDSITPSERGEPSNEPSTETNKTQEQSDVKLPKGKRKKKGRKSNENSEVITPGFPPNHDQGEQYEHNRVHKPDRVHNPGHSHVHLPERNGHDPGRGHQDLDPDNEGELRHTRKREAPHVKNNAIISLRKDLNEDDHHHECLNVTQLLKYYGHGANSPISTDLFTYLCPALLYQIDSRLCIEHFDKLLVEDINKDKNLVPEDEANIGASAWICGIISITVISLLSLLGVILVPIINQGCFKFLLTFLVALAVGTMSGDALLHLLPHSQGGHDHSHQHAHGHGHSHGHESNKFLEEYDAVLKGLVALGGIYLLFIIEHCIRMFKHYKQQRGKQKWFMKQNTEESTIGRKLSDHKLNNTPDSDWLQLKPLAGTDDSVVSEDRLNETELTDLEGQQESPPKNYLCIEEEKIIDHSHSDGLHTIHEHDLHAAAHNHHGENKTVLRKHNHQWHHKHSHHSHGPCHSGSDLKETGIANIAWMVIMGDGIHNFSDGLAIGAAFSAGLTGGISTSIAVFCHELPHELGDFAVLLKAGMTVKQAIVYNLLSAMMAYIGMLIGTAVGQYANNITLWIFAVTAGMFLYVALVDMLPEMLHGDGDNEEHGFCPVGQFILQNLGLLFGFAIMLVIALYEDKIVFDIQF
# UniProt O15198: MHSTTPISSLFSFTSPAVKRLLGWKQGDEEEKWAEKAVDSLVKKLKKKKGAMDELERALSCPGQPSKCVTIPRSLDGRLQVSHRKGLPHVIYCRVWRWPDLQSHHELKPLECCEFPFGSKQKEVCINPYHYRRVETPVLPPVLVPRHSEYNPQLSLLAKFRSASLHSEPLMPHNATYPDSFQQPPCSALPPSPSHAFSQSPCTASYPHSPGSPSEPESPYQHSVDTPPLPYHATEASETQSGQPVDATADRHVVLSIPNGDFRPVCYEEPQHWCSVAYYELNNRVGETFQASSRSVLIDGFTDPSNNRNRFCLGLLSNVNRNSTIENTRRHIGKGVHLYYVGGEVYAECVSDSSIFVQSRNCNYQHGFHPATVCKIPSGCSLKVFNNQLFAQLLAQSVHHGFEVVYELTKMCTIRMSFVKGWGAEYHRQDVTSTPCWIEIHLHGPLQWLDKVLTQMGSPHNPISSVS
# The other results are listed elsewhere or left out.
# What was measured:
# Experiment in all cases: log2 fold change, soluble protein after heating vs DMSO (PISA); higher = thermal stabilisation; K562 lysate, 10 uM; active = over 0.2 and 3.5 SD of the protein, either way, in both replicates (recomputed)
# lapatinib = compound: CS(=O)(=O)CCNCc1ccc(-c2ccc3ncnc(Nc4ccc(OCc5cccc(F)c5)c(Cl)c4)c3c2)o1 [lapatinib]
# Outline: (§1)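 A 30 min treatment with 10 μM compound was applied to crude K562 extract at 1 mg/mL protein in PBS pH 7.4 with 1 mM MgCl2. Heating for 3 min spanned 48°C-58°C, after which aliquots were pooled, adjusted to 0.5% NP-40 at 4°C and spun at 21,000xg for 90 min. TMTpro 16plex LC-MS/MS of the supernatant, with channel sums equalised, gave values recorded as log-two fold change in thermal stability against solvent controls, from duplicates.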
# pictilisib = compound: CS(=O)(=O)N1CCN(Cc2cc3nc(-c4cccc5[nH]ncc45)nc(N4CCOCC4)c3s2)CC1 [pictilisib]
# Outline: as §1
# crizotinib = compound: C[C@@H](Oc1cc(-c2cnn(C3CCNCC3)c2)cnc1N)c1c(Cl)ccc(F)c1Cl [crizotinib]
# Outline: as §1
# [1] = compound: C[C@H](C1=CC=C(C=C1)C(=O)NC2=C3C=CNC3=NC=C2)N
# Outline: as §1
# duvelisib = compound: C[C@H](Nc1ncnc2nc[nH]c12)c1cc2cccc(Cl)c2c(=O)n1-c1ccccc1 [duvelisib]
# Outline: as §1
# gandotinib = compound: Cc1cc(Nc2cc(CN3CCOCC3)c3nc(C)c(Cc4ccc(Cl)cc4F)n3n2)n[nH]1 [gandotinib]
# Outline: as §1
# tozasertib = compound: Cc1cc(Nc2cc(N3CCN(C)CC3)nc(Sc3ccc(NC(=O)C4CC4)cc3)n2)n[nH]1 [tozasertib]
# Outline: as §1
# doramapimod = compound: Cc1ccc(-n2nc(C(C)(C)C)cc2NC(=O)Nc2ccc(OCCN3CCOCC3)c3ccccc23)cc1 [doramapimod]
# Outline: as §1
# bafetinib = compound: Cc1ccc(NC(=O)c2ccc(CN3CC[C@H](N(C)C)C3)c(C(F)(F)F)c2)cc1Nc1nccc(-c2cncnc2)n1 [bafetinib]
# Outline: as §1
# [2] = compound: Cc1cccc(CC(=O)N2CCc3c2ccc(-c2cn(C)c4ncnc(N)c24)c3F)n1
# Outline: as §1
# nilotinib = compound: Cc1cn(-c2cc(NC(=O)c3ccc(C)c(Nc4nccc(-c5cccnc5)n4)c3)cc(C(F)(F)F)c2)cn1 [nilotinib]
# Outline: as §1
# [3] = compound: Cc1nc(Nc2n[nH]c3c2CN(C(=O)N[C@H](CN(C)C)c2ccccc2)C3(C)C)c2sccc2n1
# Outline: as §1
# dasatinib = compound: Cc1nc(Nc2ncc(C(=O)Nc3c(C)cccc3Cl)s2)cc(N2CCN(CCO)CC2)n1 [dasatinib]
# Outline: as §1
# [4] = compound: Cc1ncc(-c2ccnc(Nc3ccc(S(C)(=O)=O)cc3)n2)n1C(C)C
# Outline: as §1
# [5] = compound: Cn1cc(-c2ccc3c(c2)CCN3C(=O)Cc2cccc(C(F)(F)F)c2)c2c(N)ncnc21
# Outline: as §1
# quisinostat = compound: Cn1cc(CNCC2CCN(c3ncc(C(=O)NO)cn3)CC2)c2ccccc21 [quisinostat]
# Outline: as §1
# tipifarnib = compound: Cn1cncc1[C@@](N)(c1ccc(Cl)cc1)c1ccc2c(c1)c(-c1cccc(Cl)c1)cc(=O)n2C [tipifarnib]
# Outline: as §1
# [6] = compound: NC(=O)Nc1cc(-c2cccc(F)c2)sc1C(=O)N[C@H]1CCCNC1
# Outline: as §1
# [7] = compound: NC(=O)c1cnc(N[C@@H]2CCCC[C@@H]2N)nc1Nc1cccc(-n2nccn2)c1
# Outline: as §1
# [8] = compound: NC1(c2ccc(-c3nc4ccn5c(=O)[nH]nc5c4cc3-c3ccccc3)cc2)CCC1
# Outline: as §1
Target,log2 fold change (lapatinib),log2 fold change (pictilisib),log2 fold change (crizotinib),log2 fold change [1],log2 fold change (duvelisib),log2 fold change (gandotinib),log2 fold change (tozasertib),log2 fold change (doramapimod),log2 fold change (bafetinib),log2 fold change [2],log2 fold change (nilotinib),log2 fold change [3],log2 fold change (dasatinib),log2 fold change [4],log2 fold change [5],log2 fold change (quisinostat),log2 fold change (tipifarnib),log2 fold change [6],log2 fold change [7],log2 fold change [8]
SLC25A38 (UniProt Q96DW6),inactive: -0.093,inactive: -0.026,inactive: -0.044,inactive: -0.072,inactive: 0.173,inactive: -0.055,active: 0.391,inactive: -0.024,inactive: -0.025,inactive: 0.112,inactive: -0.097,inactive: -0.142,inactive: 0.015,inactive: -0.171,inactive: 0.15,inactive: -0.068,inactive: -0.061,inactive: -0.019,inactive: -0.138,inactive: 0.06
SLC39A11 (UniProt Q8N1S5),inactive: -0.054,inactive: 0.081,inactive: 0.081,inactive: -0.097,inactive: -0.002,inactive: 0.1,inactive: 0.178,inactive: -0.139,inactive: 0.022,inactive: 0.013,inactive: 0.072,inactive: -0.039,inactive: -0.092,inactive: -0.008,inactive: -0.123,inactive: 0.127,inactive: 0.068,inactive: 0.045,inactive: 0.026,inactive: 0.099
SLC7A2 isoform 3 (UniProt P52569),inactive: -0.107,inactive: 0.035,inactive: -0.035,inactive: 0.043,inactive: 0.052,inactive: -0.024,inactive: -0.131,inactive: 0.038,inactive: -0.11,inactive: 0.077,inactive: 0.063,inactive: -0.098,inactive: -0.009,inactive: 0.018,inactive: -0.032,inactive: -0.034,inactive: -0.044,inactive: 0.003,inactive: -0.029,inactive: 0.005
SLC30A10 (UniProt Q6XR72),inactive: -0.057,inactive: -0.024,inactive: -0.005,inactive: -0.156,inactive: 0.015,inactive: -0.348,inactive: 0.048,inactive: 0.004,inactive: 0.07,inactive: 0.25,inactive: 0.017,inactive: -0.086,inactive: -0.103,inactive: 0.027,inactive: -0.008,inactive: -0.047,inactive: -0.1,inactive: 0.013,inactive: 0.016,inactive: 0.047
SLC25A15 (UniProt Q9Y619),inactive: -0.029,inactive: -0.006,inactive: 0.005,inactive: -0.057,inactive: 0.02,inactive: 0.023,inactive: -0.035,inactive: 0.004,inactive: -0.013,inactive: 0.029,inactive: 0.029,inactive: 0.041,inactive: 0.008,inactive: -0.003,inactive: 0.005,inactive: -0.064,inactive: 0.012,inactive: 0.015,inactive: -0.031,inactive: -0.003
SLC25A14 isoform 3 (UniProt O95258),inactive: 0.016,inactive: 0.008,inactive: -0.088,inactive: -0.084,inactive: -0.012,inactive: 0.135,inactive: 0.009,inactive: -0.026,inactive: -0.027,inactive: 0.112,inactive: 0.056,inactive: -0.072,inactive: 0.027,inactive: 0.047,inactive: 0.093,inactive: -0.123,inactive: -0.093,inactive: 0.032,inactive: 0.015,inactive: 0
SLC35F6 (UniProt Q8N357),inactive: -0.04,inactive: -0.044,inactive: 0.053,inactive: -0.004,inactive: -0.022,inactive: -0.15,inactive: 0.096,inactive: 0.024,inactive: -0.075,inactive: 0.133,inactive: 0.009,inactive: -0.037,inactive: 0.072,inactive: -0.018,inactive: 0.108,inactive: -0.019,inactive: -0.199,inactive: 0.01,inactive: 0.022,inactive: -0.027
SLC30A5 (UniProt Q8TAD4),inactive: -0.071,inactive: -0.024,inactive: -0.152,inactive: -0.114,inactive: 0.003,inactive: 0.038,inactive: -0.012,inactive: -0.027,inactive: -0.063,inactive: 0.055,inactive: -0.028,inactive: 0.009,inactive: 0,inactive: 0.029,inactive: -0.045,inactive: -0.003,inactive: -0.053,inactive: 0.009,inactive: -0.019,inactive: -0.059
SLC30A9 (UniProt Q6PML9),inactive: -0.007,inactive: -0.054,inactive: -0.043,inactive: -0.423,inactive: 0.048,inactive: 0.008,inactive: -0.003,inactive: 0.036,inactive: -0.161,active: 0.312,inactive: -0.026,inactive: 0.013,inactive: -0.035,inactive: -0.049,inactive: 0.055,inactive: 0.041,inactive: 0.14,inactive: -0.044,inactive: -0.026,inactive: -0.008
SLC25A11 (UniProt Q02978),inactive: -0.017,inactive: 0.005,inactive: -0.039,inactive: -0.122,inactive: 0.027,inactive: 0.033,inactive: -0.006,inactive: -0.053,inactive: -0.052,inactive: 0.076,inactive: -0.02,inactive: 0.019,inactive: 0.031,inactive: 0.007,inactive: -0.025,inactive: -0.042,inactive: -0.01,inactive: 0.014,inactive: 0,inactive: -0.035
SLC25A37 (UniProt Q9NYZ2),inactive: -0.02,inactive: -0.007,inactive: 0.034,inactive: 0,inactive: 0.049,inactive: 0.028,inactive: -0.055,inactive: -0.008,inactive: -0.032,inactive: -0.002,inactive: -0.056,inactive: 0.069,inactive: -0.002,inactive: 0.008,inactive: 0.015,inactive: -0.009,inactive: 0.013,inactive: 0.022,inactive: -0.008,inactive: 0.014
SLC9A3R1 (UniProt O14745),inactive: -0.023,inactive: 0,inactive: 0.023,inactive: -0.03,inactive: 0.015,inactive: 0.076,inactive: 0,inactive: -0.018,inactive: -0.009,inactive: -0.002,inactive: 0.021,inactive: -0.018,inactive: 0.029,inactive: -0.015,inactive: -0.023,inactive: -0.005,inactive: 0.02,inactive: -0.003,inactive: -0.022,inactive: -0.015
SLC25A40 (UniProt Q8TBP6),inactive: 0.002,inactive: -0.008,inactive: -0.01,inactive: 0.171,inactive: 0.007,inactive: -0.129,inactive: -0.006,inactive: -0.067,inactive: -0.003,inactive: -0.157,inactive: 0.013,inactive: 0.038,inactive: 0.025,inactive: -0.012,inactive: 0.008,inactive: -0.016,inactive: 0.008,inactive: -0.056,inactive: -0.035,inactive: 0.001
SLC2A3 (UniProt P11169),inactive: -0.014,inactive: -0.044,inactive: 0.042,inactive: -0.022,inactive: 0.037,inactive: 0.009,inactive: -0.018,inactive: 0.059,inactive: -0.018,inactive: 0.034,inactive: 0.007,inactive: -0.023,inactive: 0.047,inactive: -0.065,inactive: 0.009,inactive: 0.008,inactive: 0.018,inactive: 0.014,inactive: 0.002,inactive: 0.008
SLC39A10 (UniProt Q9ULF5),inactive: 0.009,inactive: 0.008,inactive: 0.073,inactive: -0.003,inactive: -0.003,inactive: -0.003,inactive: 0.009,inactive: -0.003,inactive: 0.02,inactive: -0.027,inactive: -0.027,inactive: 0.009,inactive: 0.059,inactive: 0.003,inactive: -0.017,inactive: 0.046,inactive: 0.003,inactive: 0.003,inactive: 0.02,inactive: 0.026
SMAD9 (UniProt O15198),inactive: -0.056,inactive: -0.036,inactive: -0.027,inactive: -0.047,inactive: 0.091,inactive: 0.077,inactive: 0.091,inactive: 0.024,inactive: 0.014,inactive: -0.019,inactive: 0.066,inactive: 0.054,inactive: 0.062,inactive: -0.028,inactive: -0.038,inactive: -0.036,inactive: -0.021,inactive: 0.016,inactive: 0.02,inactive: -0.065

# Taken from the entries so far (two entries):
Target,log2 fold change (lapatinib),log2 fold change (pictilisib),log2 fold change (crizotinib),log2 fold change [1],log2 fold change (duvelisib),log2 fold change (gandotinib),log2 fold change (tozasertib),log2 fold change (doramapimod),log2 fold change (bafetinib),log2 fold change [2],log2 fold change (nilotinib),log2 fold change [3],log2 fold change (dasatinib),log2 fold change [4],log2 fold change [5],log2 fold change (quisinostat),log2 fold change (tipifarnib),log2 fold change [6],log2 fold change [7],log2 fold change [8]
SLC25A38 (UniProt Q96DW6),inactive: -0.093,inactive: -0.026,inactive: -0.044,inactive: -0.072,inactive: 0.173,inactive: -0.055,active: 0.391,inactive: -0.024,inactive: -0.025,inactive: 0.112,inactive: -0.097,inactive: -0.142,inactive: 0.015,inactive: -0.171,inactive: 0.15,inactive: -0.068,inactive: -0.061,inactive: -0.019,inactive: -0.138,inactive: 0.06
SLC39A11 (UniProt Q8N1S5),inactive: -0.054,inactive: 0.081,inactive: 0.081,inactive: -0.097,inactive: -0.002,inactive: 0.1,inactive: 0.178,inactive: -0.139,inactive: 0.022,inactive: 0.013,inactive: 0.072,inactive: -0.039,inactive: -0.092,inactive: -0.008,inactive: -0.123,inactive: 0.127,inactive: 0.068,inactive: 0.045,inactive: 0.026,inactive: 0.099
